The source of these data is paper PMC5944969, “Characterization of a nontypeable Haemophilus influenzae thermonuclease” (PLoS ONE, 2018).

Results are given in words; binding and its absence hold for the method and conditions named.

Assay [1] deals with NTHi nuclease (nontypeable Haemophilus influenzae thermonuclease), without signal sequence (nontypeable Haemophilus influenzae (strain 2019)) (UniProt Q57519). As to the kind of experiment: condition: 1.2–3.7 mg/ml at pH 7; 0.4–1.2 mg/ml at pH 9; SAXS; SIBYLS beamline, 10°C; 100 mM Tris pH 7 or 9, 150 mM NaCl, 5 mM CaCl, 5 mM DTT; Rg from Guinier analysis compared with Rg of the homology model (CRYSOL); both purified.

Assay [2] shares this target. In words: static light scattering; DynaPro NanoStar, 2 ul quartz cuvette, sample filtered through 0.02 um; pH 7; molecular weight from SLS; both purified.

B1: NTHi nuclease (nontypeable Haemophilus influenzae thermonuclease), without signal sequence (enzyme, UniProt Q57519 21-178)
chain: CSREKNTCRVVKISDGDTLTCLTKGNKSIKVRLAEIDAPEKSQAFGQKSKKTLSDLVYQKNVRLARKGKDRYQRTLAVVYYQKQNINLEMVKQGMAWAYKQYSHDPIYLQAQENAQAKGIGLWADNNPIEPSQWRRQEKINMAFDYQTFPSSISLFPT
Regarding B1, the binding entry in assay [1] and in assay [2] was “no binding” each time.
